Measurements taken from patent US20240417469A1.
No constants are given. Whether binding was seen depends on the method and setting. Some binding calls cover weakened binding; strength is not graded here.

Amino acid sequences for entries named in this document (tags omitted). A change or cut given only in a name is not applied to a line headed by its entry.
UniProt P07766: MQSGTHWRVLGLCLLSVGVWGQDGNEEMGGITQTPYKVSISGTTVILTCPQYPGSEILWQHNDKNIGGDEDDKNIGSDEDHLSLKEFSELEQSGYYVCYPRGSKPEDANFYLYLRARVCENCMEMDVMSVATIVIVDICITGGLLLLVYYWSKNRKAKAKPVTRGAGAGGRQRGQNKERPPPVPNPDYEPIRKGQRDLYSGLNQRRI
UniProt P04234: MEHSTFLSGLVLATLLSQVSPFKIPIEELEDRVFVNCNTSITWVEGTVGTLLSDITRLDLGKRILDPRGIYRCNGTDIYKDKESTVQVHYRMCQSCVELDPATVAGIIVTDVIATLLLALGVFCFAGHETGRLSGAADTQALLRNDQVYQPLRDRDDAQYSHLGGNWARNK
UniProt P09693: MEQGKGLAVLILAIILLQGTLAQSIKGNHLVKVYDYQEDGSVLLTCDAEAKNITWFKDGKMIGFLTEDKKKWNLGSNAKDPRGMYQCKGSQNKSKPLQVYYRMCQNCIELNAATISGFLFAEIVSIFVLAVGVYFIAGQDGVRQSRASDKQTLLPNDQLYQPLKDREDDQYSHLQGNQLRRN

Assays:
[1] = target: T1, human CD3 on cells (human PBMC; Jurkat TCR/CD3 NFAT reporter cells) (human) (UniProt P07766+P04234+P09693); assay: FACS on human PBMC
[2] = target: T1, human CD3 on cells (human PBMC; Jurkat TCR/CD3 NFAT reporter cells) (human); assay: FACS on human PBMC, PE anti-human IgG Fc secondary, geometric mean fluorescence
[3] = target: T2, human CD3 protein (human) (UniProt P07766+P04234); assay: ELISA
[4] = target: T2, human CD3 protein (human); assay: ELISA, plate-coated CD3

Row | Binder | binding [1] | binding [2] | binding [3] | binding [4]
1 | Hu155A9B1-8 (antibody, V domains shown) VH: EVQLQESGPGLVKPSETLSLTCTVSGGSISSYNVHWVRQPPGKGLEWIGRVRYNGDTSYNSALKSRVTISRDTSKNQFSLKLSSVTAADTAVYYCARGPYGGSSEPLFDYWGQGTMVTVSS VL: DIQMTQSPSSLSASVGDRVTITCKASQNINKYLNWFQQKPGKAPRLLIYTTNNLQTGIPSRFSGSGSGTDFTLTISSLQPEDFATYYCLQHNSGYTFGQGTKLEIK | binds | binds | binds | –
2 | 192A7B9 chimeric mAb (antibody, V domains shown) VH: QVQLKESGPGLVQPSQTLSLNCTVSGFSLTSYNVHWVRQPPGKGLEWMGRMRYNGDTSYNSALKSRLSISRDTSKNQVFLKMNSLQTDDTGTYYCTRGPRGGYYSALFDYWGQGVMVTVSS VL: DIQMTQSPSFLSASVGDRVTINCKASQNINRYLNWYQQKLGDAPKVLISIANSLQTGIPSRFSGSGSGTDFTLTISSLQPEDVATYFCLQHNSWYTFGAGTKLELK | – | – | – | binds
3 | 153A6B1 chimeric mAb (antibody, V domains shown) VH: QVQLKESGPGLVQPSQTLSLTCTVSGFSLTSYNIHWVRQPPGKGLEWMGRIRYNGDTSYNSALKSRLSISRDTSKNQVFLKMSSLQTDDTGTYYCTRGPYGGSREPLFDYWGQGVMVTVSS VL: DIKMTQSPSFLSAAVGDRVTINCKTSQNINKYLNWFQQKLGAAPKLLIYTTNNLQTGIPSRFSGSGSGTDFTLTISSLQPEDVATYFCLQHGSGYTFGAGTKLELK | – | – | – | binds
